The target of assay [1] is ERp57 (human (endogenous in A498)) (UniProt P30101). The assay is described as follows: co-IP; A498 cells transfected with pWPI-ERp57 or empty vector, lysed in RIPA; lysates immunoprecipitated with anti-ERp57, protein A-agarose; STAT3 detected by Western blot.
For assay [2] the target is unchanged. The assay is described as follows: proximity ligation; A498 cells (transfected with pWPI-ERp57 or empty vector), fixed with 4% paraformaldehyde; anti-ERp57 and anti-STAT3, Duolink in situ PLA kits, confocal microscopy.

Amino acid sequences for entries named in this document (tags omitted). Residues count along the entry.
UniProt P30101, residues 25-505: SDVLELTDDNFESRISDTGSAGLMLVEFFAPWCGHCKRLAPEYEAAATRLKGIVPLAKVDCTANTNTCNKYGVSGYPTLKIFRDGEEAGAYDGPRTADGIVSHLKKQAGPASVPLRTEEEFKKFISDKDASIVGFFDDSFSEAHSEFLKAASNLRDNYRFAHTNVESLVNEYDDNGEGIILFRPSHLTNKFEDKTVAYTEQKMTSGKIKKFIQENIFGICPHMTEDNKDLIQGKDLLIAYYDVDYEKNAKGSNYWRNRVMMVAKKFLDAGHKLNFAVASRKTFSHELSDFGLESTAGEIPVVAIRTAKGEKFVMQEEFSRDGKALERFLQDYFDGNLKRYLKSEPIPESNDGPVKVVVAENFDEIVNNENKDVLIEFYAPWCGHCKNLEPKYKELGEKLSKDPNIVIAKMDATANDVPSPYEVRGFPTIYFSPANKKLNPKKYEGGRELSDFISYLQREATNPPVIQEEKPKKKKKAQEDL
UniProt P40763: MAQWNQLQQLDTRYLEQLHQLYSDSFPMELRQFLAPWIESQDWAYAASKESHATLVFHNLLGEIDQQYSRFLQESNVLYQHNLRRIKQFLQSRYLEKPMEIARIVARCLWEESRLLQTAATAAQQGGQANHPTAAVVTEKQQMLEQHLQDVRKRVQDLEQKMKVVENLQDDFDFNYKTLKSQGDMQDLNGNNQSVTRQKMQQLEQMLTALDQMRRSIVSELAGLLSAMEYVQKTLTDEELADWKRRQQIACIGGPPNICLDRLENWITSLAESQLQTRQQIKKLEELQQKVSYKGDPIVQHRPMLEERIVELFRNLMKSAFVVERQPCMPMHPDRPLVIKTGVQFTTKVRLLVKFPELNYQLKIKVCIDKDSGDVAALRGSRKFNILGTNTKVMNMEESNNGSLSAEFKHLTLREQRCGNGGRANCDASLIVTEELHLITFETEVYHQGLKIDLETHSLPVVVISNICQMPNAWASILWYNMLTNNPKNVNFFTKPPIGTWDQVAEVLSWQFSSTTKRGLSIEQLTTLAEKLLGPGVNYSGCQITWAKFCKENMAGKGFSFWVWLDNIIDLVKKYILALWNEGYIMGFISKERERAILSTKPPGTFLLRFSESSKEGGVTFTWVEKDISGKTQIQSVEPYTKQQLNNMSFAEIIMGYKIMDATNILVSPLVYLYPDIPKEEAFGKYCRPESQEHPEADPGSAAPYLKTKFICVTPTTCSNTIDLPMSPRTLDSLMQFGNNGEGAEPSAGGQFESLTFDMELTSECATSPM

No constants are given. Whether binding was seen depends on the method and setting. Binding seen in cells or lysates may run through a third protein. Some binding calls cover weakened binding; strength is not graded here.

Turning to “signal transducer and activator of transcription 3 (STAT3) (from UniProt P40763 1-770)”, the binding result in assay [1] and in assay [2] was “binds” each time.

Values taken from publication PMC6864981.
